Measured values from PubChem BioAssay AID296 (DTP/NCI, 2004).
The list is a part of this screen's results and no random one: it is rich in T/C values a quarter to a half above the control, in often repeated tests (any T/C) and in doses without a T/C. Further doses and runs are listed elsewhere. T/C is the treated group as % of the vehicle group. Schedules are NCI's codes, read here as Q, the interval in days (D) or hours (H), X, the number of doses. Some doses have a count of surviving animals in place of a T/C: the source holds a T/C of zero for them, seemingly a mark for toxic or unscored doses. Counts of survivors are from the toxicity check (mostly the fifth day) where no day follows; animals may have died later. Some entries were tested several times; the values are given in rising order.

Test system: MX-1 breast xenograft, nude mice, tumor weight T/C
Test: NCI In Vivo Anticancer Drug Screen. Data for tumor model Human Mammary Carcinoma MX-1 Xenograft (intrarenal inoculation) in NU/NU Swiss (nude) mice
Settings: T/C endpoint: mean tumor weight change, higher T/C = larger tumour; for T/C: evaluated on day 11
In short: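 Tumor-bearing mice were treated with test compound alongside a vehicle-treated control group. Survival or tumor size was measured, and activity is expressed as the treated-group value divided by the control-group value.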

`CS(=O)(=O)OCCN(CCOS(C)(=O)=O)c1ccc(C=O)cc1` was tested, and the T/C (dose: 6.25 mg/kg/injection, schedule: Q01DX010 (sc), vehicle: saline) was 127 % of control, the survivor count (dose: 50.0 mg/kg/injection, schedule: Q01DX010 (sc), vehicle: saline) was 0 of 3 on day 11 and 1 of 3 on day 11 and the survivor count (dose: 100.0 mg/kg/injection, schedule: Q01DX010 (sc), vehicle: saline) was 0 of 3 on day 11.
`CC1OC(=O)C(C(C)C)NC(=O)C(C(C)C)OC(=O)C(C(C)C)NC(=O)C(C)OC(=O)C(C(C)C)NC(=O)C(C(C)C)OC(=O)C(C(C)C)NC(=O)C(C)OC(=O)C(C(C)C)NC(=O)C(C(C)C)OC(=O)C(C(C)C)NC1=O` (stereo not drawn) was tested, and the T/C (dose: 5.0 mg/kg/injection, schedule: Q01DX010 (sc), vehicle: saline with Tween-80) was 137 % of control and the survivor count (dose: 40.0 mg/kg/injection, schedule: Q01DX010 (sc), vehicle: saline with Tween-80) was 0 of 3 on day 11.
In the case of `N=c1c(C(=O)OCc2ccccc2)ncc(CCl)n1O`, the T/C (dose: 300.0 mg/kg/injection, schedule: Q04DX003 (sc), vehicle: saline with Tween-80) is reported as 142 % of control and the T/C (dose: 1200.0 mg/kg/injection, schedule: Q04DX003 (sc), vehicle: saline with Tween-80) is reported as 146 % of control.
`C(C#CCN1CCOCC1)#CCN1CCOCC1` was tested, and the survivor count (dose: 2400.0 mg/kg/injection, schedule: Q04DX003 (sc), vehicle: Klucel (hydroxypropylcellulose) (HPC)) was 1 of 6 on day 11.
